Test results from doi:10.1101/2021.07.15.452545.

By UniProt entry, the sequences of proteins in these tests, tags left out. Where a name states a change or a piece, a line headed by the entry shows the natural chain unless it says otherwise.
UniProt P63096, whole entry, looked up, stated change not applied: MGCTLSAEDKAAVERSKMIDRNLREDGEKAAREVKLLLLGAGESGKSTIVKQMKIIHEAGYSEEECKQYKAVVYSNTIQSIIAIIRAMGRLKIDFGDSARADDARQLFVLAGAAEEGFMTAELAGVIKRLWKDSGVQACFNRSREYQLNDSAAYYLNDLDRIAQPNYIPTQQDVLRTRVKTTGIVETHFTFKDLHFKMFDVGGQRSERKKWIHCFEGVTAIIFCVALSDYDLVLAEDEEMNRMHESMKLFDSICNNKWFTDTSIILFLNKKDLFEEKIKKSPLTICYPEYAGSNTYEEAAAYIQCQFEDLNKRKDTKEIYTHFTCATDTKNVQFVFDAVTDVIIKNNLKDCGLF

Target: BioID2-Gαi1-Q204L (human) (UniProt P63096)
Test: proximity labelling

| binding | Binder |
| --- | --- |
| binds | FLAG-p54-HA (protein, UniProt Q15233 1-471) MQSNKTFNLEKQNHTPRKHHQHHHQQQHHQQQQQQPPPPPIPANGQQASSQNEGLTIDLKNFRKPGEKTFTQRSRLFVGNLPPDITEEEMRKLFEKYGKAGEVFIHKDKGFGFIRLETRTLAEIAKVELDNMPLRGKQLRVRFACHSASLTVRNLPQYVSNELLEEAFSVFGQVERAVVIVDDRGRPSGKGIVEFSGKPAARKALDRCSEGSFLLTTFPRPVTVEPMDQLDDEEGLPEKLVIKNQQFHKEREQPPRFAQPGSFEYEYAMRWKALIEMEKQQQDQVDRNIKEAREKLEMEMEAARHEHQVMLMRQDLMRRQEELRRMEELHNQEVQKRKQLELRQEEERRRREEEMRRQQEEMMRRQQEGFKGTFPDAREQEIRMGQMAMGGAMGINNRGAMPPAPVPAGTPAPPGPATMMPDGTLGLTPPTTERFGQAATMEGIGAIGGTPPAFNRAAPGAEFAPNKRRRY |
| binds | HA-PSPC1 (protein, UniProt Q8WXF1 1-523) MMLRGNLKQVRIEKNPARLRALESAVGESEPAAAAAMALALAGEPAPPAPAPPEDHPDEEMGFTIDIKSFLKPGEKTYTQRCRLFVGNLPTDITEEDFKRLFERYGEPSEVFINRDRGFGFIRLESRTLAEIAKAELDGTILKSRPLRIRFATHGAALTVKNLSPVVSNELLEQAFSQFGPVEKAVVVVDDRGRATGKGFVEFAAKPPARKALERCGDGAFLLTTTPRPVIVEPMEQFDDEDGLPEKLMQKTQQYHKEREQPPRFAQPGTFEFEYASRWKALDEMEKQQREQVDRNIREAKEKLEAEMEAARHEHQLMLMRQDLMRRQEELRRLEELRNQELQKRKQIQLRHEEEHRRREEEMIRHREQEELRRQQEGFKPNYMENREQEMRMGDMGPRGAINMGDAFSPAPAGNQGPPPMMGMNMNNRATIPGPPMGPGPAMGPEGAANMGTPMMPDNGAVHNDRFPQGPPSQMGSPMGSRTGSETPQAPMSGVGPVSGGPGGFGRGSQGGNFEGPNKRRRY |

These are yes or no findings as the source states them, for the method shown. Binding seen in cells or lysates may run through a third protein. Here binding means that the protein was enriched with, or labelled near, the bait; the list need not be complete. Tags and fused reporters may be left off the sequences shown.
